# Assay results published in paper PMC7819943, “Rice protein-binding microarrays: a tool to detect cis-acting elements near promoter regions in rice”.
# The chains behind the UniProt entries cited, without tags or fusion partners.
# UniProt Q0JBA9, entry or part of it: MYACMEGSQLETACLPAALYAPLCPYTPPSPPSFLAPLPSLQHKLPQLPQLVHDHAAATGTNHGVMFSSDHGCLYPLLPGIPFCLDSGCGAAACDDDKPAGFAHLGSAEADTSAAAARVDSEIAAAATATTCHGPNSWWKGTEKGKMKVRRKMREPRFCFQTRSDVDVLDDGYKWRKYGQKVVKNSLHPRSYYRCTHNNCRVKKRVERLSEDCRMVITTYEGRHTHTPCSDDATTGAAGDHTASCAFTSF
# Some of the results follow.
# Molecular target: OsWRKY34 (Oryza sativa, UniProt Q0JBA9 1-250)
# Experiment: protein-binding microarray (RPBM); PBS, 2% BSA, 51.3 ng/ul salmon testes DNA, 50 uM zinc acetate, 200 nM TF, 25 C, 1 h; high values mean tight binding
# Settings: protein: recombinant; tags: N-terminal polyhistidine and DsRed monomer fusion (pET32a); label: CyDye5-dUTP incorporated in the synthesized complementary strand; 3' TTTTT single-stranded linker to array surface; dsDNA, one strand shown
# How it was run: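 Transcription factors were made in E. coli BL21-CodonPlus as N-terminal fusions to a polyhistidine tag and DsRed, then purified on Ni–NTA. After primer extension with Cy5-dUTP and blocking with 2% BSA, a custom Agilent array was exposed for 1 h at 25 °C to 200 nM protein in PBS, 2% BSA, salmon testes DNA and 50 µM zinc acetate. Washed arrays were scanned on an Axon 4000B, and the binding signal is per-feature fluorescence intensity in arbitrary units.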
row,Sequence,binding signal
1,TCTAGACTCATCTACCTCATTTTCTAGAAGTTCATTCATCCGGAGTCACCTAGTGCAG,8380 fluorescence intensity (a.u.)
2,CCGGTGACCCCGGCACTCCGCCGATCCGCTTCTCCTCCTCCGGAGTCACCTAGTGCAG,8320 fluorescence intensity (a.u.)
3,AGATTTTGTTTTTCTTTTCTGTTTCTTTCCATTTGATTTTCGGAGTCACCTAGTGCAG,9340 fluorescence intensity (a.u.)
4,CGACGAATTCTGCTCTCCATTCTCCTCGCCGTTGACGAAACGGAGTCACCTAGTGCAG,10600 fluorescence intensity (a.u.)
5,TCGTTTCCCTCGCCGCCGACGCGTCTTAGTTTGCCCATGCCGGAGTCACCTAGTGCAG,10400 fluorescence intensity (a.u.)
6,CACACCGAAACGGCCCACGCGTACCGACGCACCTCGCTCACGGAGTCACCTAGTGCAG,9110 fluorescence intensity (a.u.)
7,AGGCCGTTGATCTTCTTTTTGGATTATGTTACAGGTTTCACGGAGTCACCTAGTGCAG,8460 fluorescence intensity (a.u.)
8,GTTTTACCTTTTTTCCATCGGTTTCTTTTCCTTGGTCGAACGGAGTCACCTAGTGCAG,8240 fluorescence intensity (a.u.)
9,GCCGTCGTCTCCCGTGTGCTCGGCTTCTCCGCCGTCCCTCCGGAGTCACCTAGTGCAG,8170 fluorescence intensity (a.u.)
10,CGGCGAGCGAAGGCCGCGGCGGGGCGGGCGGAGGCGGGACCGGAGTCACCTAGTGCAG,10500 fluorescence intensity (a.u.)
11,GGTGGTGGGTAAAAGAACAATAATATCTCGCCGGTAAATTCGGAGTCACCTAGTGCAG,8930 fluorescence intensity (a.u.)
12,ATTATAACTATTCTTCGTTCGTTTCTTCACCTACTTCTACCGGAGTCACCTAGTGCAG,14500 fluorescence intensity (a.u.)
13,GCGGGCGGGCGGGCGGGCGGCAAGAAACAGGGATCTTGAGCGGAGTCACCTAGTGCAG,15600 fluorescence intensity (a.u.)
14,ATCAAGCCGAATAGTGCTGACATCTTCATTCTGGTTTTTTCGGAGTCACCTAGTGCAG,9510 fluorescence intensity (a.u.)
15,GCATATAAACGAGCGCCTCCGCTGCCACTTCACAAGCAACCGGAGTCACCTAGTGCAG,9080 fluorescence intensity (a.u.)
16,AATATTTTTTGACTTCTCATTTCACTTGAAATCACACGACCGGAGTCACCTAGTGCAG,8330 fluorescence intensity (a.u.)
17,GGTGGGAGGAGGGATGAAAAAATGACGAGTTCGATTTTAACGGAGTCACCTAGTGCAG,9990 fluorescence intensity (a.u.)
18,TTATCGAATGATTGACCGGTCAAACCCTTCTTAGCCATAACGGAGTCACCTAGTGCAG,11600 fluorescence intensity (a.u.)
19,ATACTGAGAAAGTGCCAAGTTTTTGTCTGCTTCATGTAACCGGAGTCACCTAGTGCAG,8110 fluorescence intensity (a.u.)
20,TCCGCTTTAGAAGGCTTCTCTACTGTACTTCCTTTCACTACGGAGTCACCTAGTGCAG,9430 fluorescence intensity (a.u.)
21,GCCATCATCTTCTTCGCCGGTTTGTTTCTTCCTCTTCTTTCGGAGTCACCTAGTGCAG,13900 fluorescence intensity (a.u.)
22,CTTCCGCGTGCCGCTCCGCGCCGCCATGCACCCGGCGCGCCGGAGTCACCTAGTGCAG,9400 fluorescence intensity (a.u.)
23,GGATCTGTTAGCTTCCTGGTGTAATCAAATTGTCTCTTTACGGAGTCACCTAGTGCAG,8970 fluorescence intensity (a.u.)
24,GCGTTGGAACTGGTCATCTTGCAAAAAAGTCCTCGATTAACGGAGTCACCTAGTGCAG,8080 fluorescence intensity (a.u.)
25,GTTTGTCCCGATGTTGATTTTTCACATAATATTTGACCATCGGAGTCACCTAGTGCAG,9470 fluorescence intensity (a.u.)
26,CATGATCTATTACCACCCTAGATCACGGTCAGTTCATCTCCGGAGTCACCTAGTGCAG,8180 fluorescence intensity (a.u.)
27,GTCACAAGGTTTTTGTTTTGTTTTCTTTTTTTTTGTCGCTCGGAGTCACCTAGTGCAG,8230 fluorescence intensity (a.u.)

row,Sequence,binding signal
1,ATATCCACCCCTAGTTCCAACTTATTAGTCATTTACAAGTCGGAGTCACCTAGTGCAG,9450 fluorescence intensity (a.u.)
2,CATACGGAGATATCTCCTTTCTTTCTTTGACTGTTGCCTTCGGAGTCACCTAGTGCAG,10400 fluorescence intensity (a.u.)
3,TGTTTGACGCCGTTGACTTTTTAACACATGTTTGACCGTTCGGAGTCACCTAGTGCAG,41700 fluorescence intensity (a.u.)
4,GCATCCTGCGCCGTCGCCTCGCCTGTTCTTCAATTTGCCGCGGAGTCACCTAGTGCAG,9550 fluorescence intensity (a.u.)
5,ACCGGCACCACCAACAACCACACACCTCCTCCGCTAGCTGCGGAGTCACCTAGTGCAG,10800 fluorescence intensity (a.u.)
6,GTTCCTGGTTTTTGTTATGATGGTGTTGTTTCTTTTGGGGCGGAGTCACCTAGTGCAG,9520 fluorescence intensity (a.u.)
7,TCGTCACTTCGTGTGGCCGCCGCCCTCCGCCTCGCCGCTCCGGAGTCACCTAGTGCAG,10200 fluorescence intensity (a.u.)
8,TATATCTTGTGTTCATATTCGTAGCCATAAGTCTTTTTCTCGGAGTCACCTAGTGCAG,8940 fluorescence intensity (a.u.)
9,ACTGCCGGTTCAACTGCTCCACGGCTCCACTCCACGCATCCGGAGTCACCTAGTGCAG,9340 fluorescence intensity (a.u.)
10,AAGAAGAAAACCGTCCAACCGCTCCATGTTCGTTTGTGTCCGGAGTCACCTAGTGCAG,9560 fluorescence intensity (a.u.)
11,ACACCAAGCCACTCACCACACCTCGCAATTTACATGGCTCCGGAGTCACCTAGTGCAG,8600 fluorescence intensity (a.u.)
12,CGGCGAGCCAGCTGCTACAGTAGCCTCCGCCGCCGGCGGCCGGAGTCACCTAGTGCAG,9670 fluorescence intensity (a.u.)
13,TAGTGTCAAACTTCTCTTGTATGGCTTTGTTTATAATTCCCGGAGTCACCTAGTGCAG,8430 fluorescence intensity (a.u.)
14,CCAGGAGCGGGGAGAAAGTAAGGGGAGGGGAGCGCCGCCTCGGAGTCACCTAGTGCAG,8980 fluorescence intensity (a.u.)
15,TGGTTGAGGCTGTTTTCCGATCATTTCCGACCGTTTTCATCGGAGTCACCTAGTGCAG,8230 fluorescence intensity (a.u.)
16,ATACATTTTAAGACAAATCTATGCATACTATTTCTTTTTCCGGAGTCACCTAGTGCAG,8420 fluorescence intensity (a.u.)
17,ACTATTATACTTGCTCTCAGCTAATACCAATCAAATTAAGCGGAGTCACCTAGTGCAG,8800 fluorescence intensity (a.u.)
18,GTTTCATGTGCCGATGTCATTTGAGAGCTACCGTGTCTTACGGAGTCACCTAGTGCAG,9270 fluorescence intensity (a.u.)
19,CGCGATGTGATGTCTTTCTTCTCACTCCACGCACCATTTTCGGAGTCACCTAGTGCAG,9350 fluorescence intensity (a.u.)
20,TGCTTTTCATTTTGCGTGAAGTATTGGACTCTTTAGATCACGGAGTCACCTAGTGCAG,8500 fluorescence intensity (a.u.)
21,CATCCACCTCTCCTGGCTCTCCAGATATGTCGATGAACATCGGAGTCACCTAGTGCAG,10300 fluorescence intensity (a.u.)
22,GAGTTGATTTGCGTTGTCTCTCCGTCTCTTTCTTATTAATCGGAGTCACCTAGTGCAG,14200 fluorescence intensity (a.u.)
23,ACAAGCACATTGACTTTCGAATTGTTGTCCTCGGATGCTACGGAGTCACCTAGTGCAG,10000 fluorescence intensity (a.u.)
24,GTGCACGTCTGACTTCTTGCACTCCCTATACGTCTTGACCCGGAGTCACCTAGTGCAG,8360 fluorescence intensity (a.u.)
25,TGGTGTGGCGTATGTGATAGTTACTTACTTAGATGGTGTGCGGAGTCACCTAGTGCAG,9360 fluorescence intensity (a.u.)
26,CCTTCTATCTATCGATCCAATCCAACGCTGCAGAGACCCTCGGAGTCACCTAGTGCAG,9180 fluorescence intensity (a.u.)
27,AATGGGATATGGGAGGTGGGATTGGGAAAGGGGAATAGATCGGAGTCACCTAGTGCAG,12000 fluorescence intensity (a.u.)
